Results published in PMC10760972.
No constants are given. Whether binding was seen depends on the method and setting. Binding seen in cells or lysates may run through a third protein. These calls come from enrichment with a bait or labelling near it, and not all partners need be listed.

By UniProt entry, the sequences of proteins in these tests, tags left out.
UniProt P51587: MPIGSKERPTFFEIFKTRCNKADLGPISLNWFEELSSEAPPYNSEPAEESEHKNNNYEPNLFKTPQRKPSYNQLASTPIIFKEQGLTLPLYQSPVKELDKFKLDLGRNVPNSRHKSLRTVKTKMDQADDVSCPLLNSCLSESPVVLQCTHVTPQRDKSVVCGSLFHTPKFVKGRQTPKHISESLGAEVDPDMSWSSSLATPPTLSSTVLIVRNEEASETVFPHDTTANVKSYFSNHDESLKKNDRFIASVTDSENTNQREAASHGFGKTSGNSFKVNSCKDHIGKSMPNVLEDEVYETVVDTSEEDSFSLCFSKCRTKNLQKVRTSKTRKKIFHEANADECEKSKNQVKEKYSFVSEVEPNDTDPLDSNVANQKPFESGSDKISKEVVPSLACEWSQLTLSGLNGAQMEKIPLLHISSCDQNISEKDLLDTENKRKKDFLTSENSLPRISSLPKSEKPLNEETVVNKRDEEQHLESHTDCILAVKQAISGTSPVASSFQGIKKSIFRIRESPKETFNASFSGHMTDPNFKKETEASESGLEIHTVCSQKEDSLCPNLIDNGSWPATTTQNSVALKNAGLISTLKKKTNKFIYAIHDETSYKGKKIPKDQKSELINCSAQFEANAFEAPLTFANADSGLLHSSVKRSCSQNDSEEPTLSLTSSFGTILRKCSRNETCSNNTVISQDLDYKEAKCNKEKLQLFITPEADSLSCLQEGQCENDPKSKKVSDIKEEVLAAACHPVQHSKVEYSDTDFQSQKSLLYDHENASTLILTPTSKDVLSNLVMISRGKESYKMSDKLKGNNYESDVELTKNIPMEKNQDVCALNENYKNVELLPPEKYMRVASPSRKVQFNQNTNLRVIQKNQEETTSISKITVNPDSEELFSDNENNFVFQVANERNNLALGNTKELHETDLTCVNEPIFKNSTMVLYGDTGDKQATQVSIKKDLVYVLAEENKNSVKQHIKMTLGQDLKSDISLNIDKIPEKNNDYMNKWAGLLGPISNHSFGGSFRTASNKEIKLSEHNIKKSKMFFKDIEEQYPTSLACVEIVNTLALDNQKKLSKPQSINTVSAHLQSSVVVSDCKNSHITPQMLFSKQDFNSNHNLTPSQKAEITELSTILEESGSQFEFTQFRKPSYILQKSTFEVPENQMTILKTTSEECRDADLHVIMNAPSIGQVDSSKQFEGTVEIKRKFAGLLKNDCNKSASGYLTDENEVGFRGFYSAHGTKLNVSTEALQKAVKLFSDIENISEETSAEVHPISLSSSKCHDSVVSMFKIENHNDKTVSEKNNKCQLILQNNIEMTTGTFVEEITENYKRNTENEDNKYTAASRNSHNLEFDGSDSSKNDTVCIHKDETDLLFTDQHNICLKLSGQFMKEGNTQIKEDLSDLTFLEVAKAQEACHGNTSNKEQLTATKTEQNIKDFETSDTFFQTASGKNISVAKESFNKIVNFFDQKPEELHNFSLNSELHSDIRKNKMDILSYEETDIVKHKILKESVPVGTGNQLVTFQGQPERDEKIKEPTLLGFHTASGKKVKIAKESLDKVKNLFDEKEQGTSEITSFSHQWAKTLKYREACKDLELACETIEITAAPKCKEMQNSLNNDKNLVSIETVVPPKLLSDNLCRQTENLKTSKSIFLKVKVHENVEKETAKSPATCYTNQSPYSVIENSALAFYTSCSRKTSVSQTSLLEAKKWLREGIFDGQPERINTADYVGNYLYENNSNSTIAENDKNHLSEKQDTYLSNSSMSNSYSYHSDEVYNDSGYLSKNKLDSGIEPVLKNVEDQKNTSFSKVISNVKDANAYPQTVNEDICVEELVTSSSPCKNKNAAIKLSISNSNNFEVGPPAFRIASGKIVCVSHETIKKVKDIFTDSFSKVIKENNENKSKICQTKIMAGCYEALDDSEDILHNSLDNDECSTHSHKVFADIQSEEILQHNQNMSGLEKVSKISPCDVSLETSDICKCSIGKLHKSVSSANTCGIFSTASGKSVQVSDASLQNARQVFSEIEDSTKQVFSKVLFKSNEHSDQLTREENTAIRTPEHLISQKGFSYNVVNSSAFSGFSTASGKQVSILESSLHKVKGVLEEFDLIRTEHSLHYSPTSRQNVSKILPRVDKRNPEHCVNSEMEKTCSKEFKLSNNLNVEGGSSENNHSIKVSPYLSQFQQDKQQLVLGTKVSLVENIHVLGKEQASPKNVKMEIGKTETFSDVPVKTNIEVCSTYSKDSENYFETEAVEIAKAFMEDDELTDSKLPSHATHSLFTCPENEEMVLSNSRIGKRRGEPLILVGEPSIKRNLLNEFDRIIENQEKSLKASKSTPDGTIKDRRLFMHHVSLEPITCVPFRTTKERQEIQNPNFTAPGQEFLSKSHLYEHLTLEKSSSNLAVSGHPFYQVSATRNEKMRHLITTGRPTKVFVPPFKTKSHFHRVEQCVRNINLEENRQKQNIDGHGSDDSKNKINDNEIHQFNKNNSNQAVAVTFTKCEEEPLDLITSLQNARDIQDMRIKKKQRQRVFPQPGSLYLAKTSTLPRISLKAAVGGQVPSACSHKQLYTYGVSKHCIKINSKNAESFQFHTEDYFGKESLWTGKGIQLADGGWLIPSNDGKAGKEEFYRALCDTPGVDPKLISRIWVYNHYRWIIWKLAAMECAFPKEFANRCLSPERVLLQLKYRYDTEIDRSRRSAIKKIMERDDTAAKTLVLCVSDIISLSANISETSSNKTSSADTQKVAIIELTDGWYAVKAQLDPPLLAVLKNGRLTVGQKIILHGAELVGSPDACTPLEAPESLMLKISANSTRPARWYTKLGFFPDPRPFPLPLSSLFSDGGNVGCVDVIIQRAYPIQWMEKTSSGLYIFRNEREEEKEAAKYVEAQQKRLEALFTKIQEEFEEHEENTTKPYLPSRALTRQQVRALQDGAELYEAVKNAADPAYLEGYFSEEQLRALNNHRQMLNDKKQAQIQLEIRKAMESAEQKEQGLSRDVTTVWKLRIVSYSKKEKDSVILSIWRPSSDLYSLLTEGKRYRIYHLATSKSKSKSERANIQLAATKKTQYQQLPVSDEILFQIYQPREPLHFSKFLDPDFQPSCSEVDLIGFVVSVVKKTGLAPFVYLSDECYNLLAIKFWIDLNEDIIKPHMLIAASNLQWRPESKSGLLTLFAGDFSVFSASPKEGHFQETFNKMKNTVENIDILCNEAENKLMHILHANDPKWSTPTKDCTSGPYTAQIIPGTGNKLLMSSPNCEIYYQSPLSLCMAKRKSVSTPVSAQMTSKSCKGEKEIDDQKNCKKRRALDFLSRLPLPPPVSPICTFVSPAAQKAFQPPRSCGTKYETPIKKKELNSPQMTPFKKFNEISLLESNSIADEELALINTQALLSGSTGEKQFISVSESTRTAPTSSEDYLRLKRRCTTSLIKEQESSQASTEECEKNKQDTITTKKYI
UniProt Q96GD4: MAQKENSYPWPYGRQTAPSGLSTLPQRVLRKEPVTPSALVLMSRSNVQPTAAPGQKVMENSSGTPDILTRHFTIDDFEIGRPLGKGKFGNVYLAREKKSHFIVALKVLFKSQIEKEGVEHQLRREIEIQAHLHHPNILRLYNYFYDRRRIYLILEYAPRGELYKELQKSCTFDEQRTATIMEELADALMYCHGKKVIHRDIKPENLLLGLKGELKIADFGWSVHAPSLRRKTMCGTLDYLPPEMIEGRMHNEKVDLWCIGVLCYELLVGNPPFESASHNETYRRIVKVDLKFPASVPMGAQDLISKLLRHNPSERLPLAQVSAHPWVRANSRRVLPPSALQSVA
UniProt O60566: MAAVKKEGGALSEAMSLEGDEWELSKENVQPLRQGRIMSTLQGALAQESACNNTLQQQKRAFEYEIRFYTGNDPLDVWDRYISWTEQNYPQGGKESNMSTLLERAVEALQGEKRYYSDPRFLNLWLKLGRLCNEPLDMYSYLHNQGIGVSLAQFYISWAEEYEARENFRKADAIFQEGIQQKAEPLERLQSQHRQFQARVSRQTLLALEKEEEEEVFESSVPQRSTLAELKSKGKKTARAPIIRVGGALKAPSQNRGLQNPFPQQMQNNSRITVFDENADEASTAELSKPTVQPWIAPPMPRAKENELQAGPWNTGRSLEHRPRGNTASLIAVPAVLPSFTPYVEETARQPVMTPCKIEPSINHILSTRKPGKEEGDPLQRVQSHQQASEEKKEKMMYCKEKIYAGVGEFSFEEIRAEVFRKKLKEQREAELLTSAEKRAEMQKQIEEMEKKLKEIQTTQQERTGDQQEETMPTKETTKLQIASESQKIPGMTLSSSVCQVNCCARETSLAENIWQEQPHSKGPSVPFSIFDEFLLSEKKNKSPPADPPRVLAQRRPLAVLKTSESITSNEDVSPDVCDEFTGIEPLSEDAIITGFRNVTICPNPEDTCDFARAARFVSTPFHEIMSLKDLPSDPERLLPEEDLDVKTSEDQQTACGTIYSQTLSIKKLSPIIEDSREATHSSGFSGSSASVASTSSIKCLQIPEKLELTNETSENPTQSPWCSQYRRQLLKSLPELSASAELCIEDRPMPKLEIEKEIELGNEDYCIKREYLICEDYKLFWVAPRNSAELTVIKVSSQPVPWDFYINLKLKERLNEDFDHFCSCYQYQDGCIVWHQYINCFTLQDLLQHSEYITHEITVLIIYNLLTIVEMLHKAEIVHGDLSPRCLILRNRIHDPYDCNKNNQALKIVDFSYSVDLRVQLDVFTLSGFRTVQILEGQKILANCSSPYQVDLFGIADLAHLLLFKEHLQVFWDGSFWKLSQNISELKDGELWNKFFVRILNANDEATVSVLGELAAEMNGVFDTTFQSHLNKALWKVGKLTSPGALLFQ

Key:
[1] = biological target: T1, SFB-NSFL1C (UniProt Q9UNZ2); assay: affinity purification with mass spectrometry; tandem affinity purification (streptavidin-Sepharose, biotin elution, S-protein agarose; NETN buffer, 4 C) of SFB-NSFL1C from stable HEK293T cells; mass spectrometry
T1 sequence: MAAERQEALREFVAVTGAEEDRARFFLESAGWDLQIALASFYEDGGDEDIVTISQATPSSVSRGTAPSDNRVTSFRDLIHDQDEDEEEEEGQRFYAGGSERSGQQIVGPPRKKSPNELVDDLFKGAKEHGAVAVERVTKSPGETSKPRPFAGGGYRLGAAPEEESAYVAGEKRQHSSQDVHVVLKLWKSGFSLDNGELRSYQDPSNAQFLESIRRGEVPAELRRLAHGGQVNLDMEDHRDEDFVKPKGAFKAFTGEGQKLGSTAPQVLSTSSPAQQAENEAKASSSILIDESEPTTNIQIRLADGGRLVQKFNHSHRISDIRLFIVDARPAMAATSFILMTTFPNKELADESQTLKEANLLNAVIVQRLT

[2] = biological target: BRCA2 (UniProt P51587); assay: affinity purification with mass spectrometry; endogenous immunoprecipitation of BRCA2; eluted proteins identified by mass spectrometry

binding [1]	binding [2]	Substance
binds	binds	Aurora kinase B (AURKB), endogenous (from UniProt Q96GD4 1-344)
	binds	BubR1 (from UniProt O60566 1-1050)
